# Results published in the supplement of paper PMC12819154, “High-throughput peptide-centric local stability assay extends protein–ligand identification to membrane proteins, tissues and bacteria” (Nature Structural & Molecular Biology, 2025).
# Chains of the proteins cited; added tags and fusions are not shown. Lines headed by an entry give the natural chain unless they say otherwise; changes in a name come on top.
# UniProt Q0P651: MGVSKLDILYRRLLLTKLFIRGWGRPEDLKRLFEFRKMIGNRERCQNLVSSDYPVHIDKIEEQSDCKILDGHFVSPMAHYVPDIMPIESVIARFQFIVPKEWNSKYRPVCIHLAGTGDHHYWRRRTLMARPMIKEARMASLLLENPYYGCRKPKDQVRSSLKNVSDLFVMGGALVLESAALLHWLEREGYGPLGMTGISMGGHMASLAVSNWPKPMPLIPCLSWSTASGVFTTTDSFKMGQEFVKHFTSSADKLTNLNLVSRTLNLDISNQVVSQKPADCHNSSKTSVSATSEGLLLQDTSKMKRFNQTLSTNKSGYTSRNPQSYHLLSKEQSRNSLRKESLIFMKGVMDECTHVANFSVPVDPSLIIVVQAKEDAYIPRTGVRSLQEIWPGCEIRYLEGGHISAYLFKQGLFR
# UniProt Q03426, whole entry: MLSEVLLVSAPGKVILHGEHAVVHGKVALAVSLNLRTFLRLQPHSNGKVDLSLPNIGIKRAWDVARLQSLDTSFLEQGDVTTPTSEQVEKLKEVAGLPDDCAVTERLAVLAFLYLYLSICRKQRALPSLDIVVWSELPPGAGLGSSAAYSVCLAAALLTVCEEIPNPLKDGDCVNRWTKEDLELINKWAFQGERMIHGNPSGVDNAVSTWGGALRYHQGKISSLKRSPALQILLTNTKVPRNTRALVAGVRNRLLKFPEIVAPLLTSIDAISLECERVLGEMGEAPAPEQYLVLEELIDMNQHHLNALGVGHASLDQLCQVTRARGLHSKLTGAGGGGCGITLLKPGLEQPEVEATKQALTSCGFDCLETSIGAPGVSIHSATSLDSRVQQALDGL
# UniProt Q06546: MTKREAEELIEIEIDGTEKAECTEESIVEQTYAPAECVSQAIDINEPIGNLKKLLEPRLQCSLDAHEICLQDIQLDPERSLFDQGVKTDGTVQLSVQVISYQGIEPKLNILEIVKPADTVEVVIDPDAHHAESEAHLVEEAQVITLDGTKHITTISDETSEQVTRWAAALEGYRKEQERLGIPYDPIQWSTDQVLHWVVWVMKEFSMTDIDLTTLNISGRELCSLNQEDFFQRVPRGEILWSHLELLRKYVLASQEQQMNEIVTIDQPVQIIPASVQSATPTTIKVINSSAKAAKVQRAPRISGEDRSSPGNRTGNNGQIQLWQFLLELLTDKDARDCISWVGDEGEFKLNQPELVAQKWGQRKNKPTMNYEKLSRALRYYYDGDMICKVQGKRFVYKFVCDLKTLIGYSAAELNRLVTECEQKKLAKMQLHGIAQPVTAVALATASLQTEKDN
# UniProt Q12857, whole entry: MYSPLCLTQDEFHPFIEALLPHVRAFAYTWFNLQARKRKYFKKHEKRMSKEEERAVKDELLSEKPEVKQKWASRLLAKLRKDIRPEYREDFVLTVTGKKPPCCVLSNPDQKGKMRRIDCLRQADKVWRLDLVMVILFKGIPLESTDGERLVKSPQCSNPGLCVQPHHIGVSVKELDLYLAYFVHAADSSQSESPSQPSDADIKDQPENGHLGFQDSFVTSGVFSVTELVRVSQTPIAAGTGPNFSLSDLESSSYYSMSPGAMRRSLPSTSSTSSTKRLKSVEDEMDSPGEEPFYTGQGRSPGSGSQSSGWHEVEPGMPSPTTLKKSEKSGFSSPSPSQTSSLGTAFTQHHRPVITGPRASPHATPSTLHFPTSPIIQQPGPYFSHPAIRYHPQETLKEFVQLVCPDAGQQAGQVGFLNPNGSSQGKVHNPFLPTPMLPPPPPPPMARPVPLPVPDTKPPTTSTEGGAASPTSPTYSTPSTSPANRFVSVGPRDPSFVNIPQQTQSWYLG
# UniProt P98153: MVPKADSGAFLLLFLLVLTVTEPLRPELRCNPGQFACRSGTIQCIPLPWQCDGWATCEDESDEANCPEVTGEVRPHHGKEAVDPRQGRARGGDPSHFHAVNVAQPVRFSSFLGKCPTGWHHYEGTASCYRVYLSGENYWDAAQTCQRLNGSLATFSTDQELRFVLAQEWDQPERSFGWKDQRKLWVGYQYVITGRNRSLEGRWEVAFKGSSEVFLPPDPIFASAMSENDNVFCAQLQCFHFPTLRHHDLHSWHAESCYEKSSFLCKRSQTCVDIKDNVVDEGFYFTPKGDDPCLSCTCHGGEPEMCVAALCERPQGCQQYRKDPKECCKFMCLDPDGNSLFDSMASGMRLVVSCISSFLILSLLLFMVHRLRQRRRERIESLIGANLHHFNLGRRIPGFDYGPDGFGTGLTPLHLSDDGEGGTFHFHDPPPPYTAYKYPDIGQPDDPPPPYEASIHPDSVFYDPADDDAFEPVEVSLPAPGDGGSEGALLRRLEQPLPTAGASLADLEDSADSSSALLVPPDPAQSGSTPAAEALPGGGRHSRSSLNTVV
# UniProt Q04725: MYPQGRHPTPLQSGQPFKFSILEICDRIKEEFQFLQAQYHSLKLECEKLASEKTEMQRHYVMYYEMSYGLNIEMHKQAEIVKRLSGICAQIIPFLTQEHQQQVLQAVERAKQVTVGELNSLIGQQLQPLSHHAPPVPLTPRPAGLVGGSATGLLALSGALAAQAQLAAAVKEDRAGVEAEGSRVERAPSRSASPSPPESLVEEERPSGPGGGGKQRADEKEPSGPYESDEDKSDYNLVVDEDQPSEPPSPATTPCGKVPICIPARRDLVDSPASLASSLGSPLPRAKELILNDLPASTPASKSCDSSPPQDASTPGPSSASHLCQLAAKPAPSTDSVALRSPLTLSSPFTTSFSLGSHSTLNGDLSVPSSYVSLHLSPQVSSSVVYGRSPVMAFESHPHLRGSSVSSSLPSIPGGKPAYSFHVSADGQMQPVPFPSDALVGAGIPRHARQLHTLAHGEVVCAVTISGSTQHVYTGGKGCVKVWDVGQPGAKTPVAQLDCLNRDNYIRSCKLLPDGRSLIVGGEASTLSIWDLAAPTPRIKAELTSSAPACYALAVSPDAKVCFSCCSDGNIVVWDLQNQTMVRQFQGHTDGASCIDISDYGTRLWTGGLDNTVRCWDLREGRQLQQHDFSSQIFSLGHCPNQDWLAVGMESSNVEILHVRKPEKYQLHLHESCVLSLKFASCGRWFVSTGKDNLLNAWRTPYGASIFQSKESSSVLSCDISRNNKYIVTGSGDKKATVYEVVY
# UniProt Q12769: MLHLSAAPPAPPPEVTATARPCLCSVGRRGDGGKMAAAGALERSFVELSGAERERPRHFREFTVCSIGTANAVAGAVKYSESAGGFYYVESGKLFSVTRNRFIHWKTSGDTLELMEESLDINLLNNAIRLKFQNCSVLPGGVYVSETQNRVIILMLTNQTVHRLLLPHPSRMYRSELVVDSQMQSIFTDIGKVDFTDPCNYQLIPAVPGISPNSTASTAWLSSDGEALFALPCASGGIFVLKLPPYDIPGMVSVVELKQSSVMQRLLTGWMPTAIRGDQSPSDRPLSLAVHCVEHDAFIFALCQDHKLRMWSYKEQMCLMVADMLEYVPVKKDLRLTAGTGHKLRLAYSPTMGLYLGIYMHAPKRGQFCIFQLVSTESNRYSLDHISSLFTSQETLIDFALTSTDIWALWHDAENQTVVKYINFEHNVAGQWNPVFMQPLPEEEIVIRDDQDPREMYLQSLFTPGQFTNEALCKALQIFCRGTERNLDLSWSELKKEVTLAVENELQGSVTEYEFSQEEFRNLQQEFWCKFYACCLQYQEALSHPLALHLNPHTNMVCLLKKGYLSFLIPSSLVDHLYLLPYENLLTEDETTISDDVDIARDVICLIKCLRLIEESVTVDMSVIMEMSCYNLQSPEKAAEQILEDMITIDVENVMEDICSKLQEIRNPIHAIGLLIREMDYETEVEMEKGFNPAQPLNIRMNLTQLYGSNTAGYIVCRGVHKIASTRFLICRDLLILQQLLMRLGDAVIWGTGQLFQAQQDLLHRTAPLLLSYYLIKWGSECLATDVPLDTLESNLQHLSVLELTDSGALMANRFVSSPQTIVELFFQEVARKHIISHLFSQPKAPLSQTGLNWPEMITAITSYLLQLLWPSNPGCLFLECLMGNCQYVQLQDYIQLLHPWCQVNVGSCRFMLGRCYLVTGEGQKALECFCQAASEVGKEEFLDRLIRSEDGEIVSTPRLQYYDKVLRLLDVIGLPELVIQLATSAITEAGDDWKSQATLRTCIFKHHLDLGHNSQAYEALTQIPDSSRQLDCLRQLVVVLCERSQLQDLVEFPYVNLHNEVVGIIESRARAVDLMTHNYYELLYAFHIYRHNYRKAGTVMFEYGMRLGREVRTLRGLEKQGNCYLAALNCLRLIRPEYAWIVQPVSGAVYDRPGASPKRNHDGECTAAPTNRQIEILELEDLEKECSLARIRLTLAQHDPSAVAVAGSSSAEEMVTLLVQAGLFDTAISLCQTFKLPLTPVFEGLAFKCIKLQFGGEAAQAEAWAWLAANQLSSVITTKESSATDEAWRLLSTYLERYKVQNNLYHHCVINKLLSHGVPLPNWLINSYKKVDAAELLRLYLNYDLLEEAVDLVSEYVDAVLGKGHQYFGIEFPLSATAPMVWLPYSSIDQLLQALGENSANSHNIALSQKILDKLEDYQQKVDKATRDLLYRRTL
# UniProt Q12873: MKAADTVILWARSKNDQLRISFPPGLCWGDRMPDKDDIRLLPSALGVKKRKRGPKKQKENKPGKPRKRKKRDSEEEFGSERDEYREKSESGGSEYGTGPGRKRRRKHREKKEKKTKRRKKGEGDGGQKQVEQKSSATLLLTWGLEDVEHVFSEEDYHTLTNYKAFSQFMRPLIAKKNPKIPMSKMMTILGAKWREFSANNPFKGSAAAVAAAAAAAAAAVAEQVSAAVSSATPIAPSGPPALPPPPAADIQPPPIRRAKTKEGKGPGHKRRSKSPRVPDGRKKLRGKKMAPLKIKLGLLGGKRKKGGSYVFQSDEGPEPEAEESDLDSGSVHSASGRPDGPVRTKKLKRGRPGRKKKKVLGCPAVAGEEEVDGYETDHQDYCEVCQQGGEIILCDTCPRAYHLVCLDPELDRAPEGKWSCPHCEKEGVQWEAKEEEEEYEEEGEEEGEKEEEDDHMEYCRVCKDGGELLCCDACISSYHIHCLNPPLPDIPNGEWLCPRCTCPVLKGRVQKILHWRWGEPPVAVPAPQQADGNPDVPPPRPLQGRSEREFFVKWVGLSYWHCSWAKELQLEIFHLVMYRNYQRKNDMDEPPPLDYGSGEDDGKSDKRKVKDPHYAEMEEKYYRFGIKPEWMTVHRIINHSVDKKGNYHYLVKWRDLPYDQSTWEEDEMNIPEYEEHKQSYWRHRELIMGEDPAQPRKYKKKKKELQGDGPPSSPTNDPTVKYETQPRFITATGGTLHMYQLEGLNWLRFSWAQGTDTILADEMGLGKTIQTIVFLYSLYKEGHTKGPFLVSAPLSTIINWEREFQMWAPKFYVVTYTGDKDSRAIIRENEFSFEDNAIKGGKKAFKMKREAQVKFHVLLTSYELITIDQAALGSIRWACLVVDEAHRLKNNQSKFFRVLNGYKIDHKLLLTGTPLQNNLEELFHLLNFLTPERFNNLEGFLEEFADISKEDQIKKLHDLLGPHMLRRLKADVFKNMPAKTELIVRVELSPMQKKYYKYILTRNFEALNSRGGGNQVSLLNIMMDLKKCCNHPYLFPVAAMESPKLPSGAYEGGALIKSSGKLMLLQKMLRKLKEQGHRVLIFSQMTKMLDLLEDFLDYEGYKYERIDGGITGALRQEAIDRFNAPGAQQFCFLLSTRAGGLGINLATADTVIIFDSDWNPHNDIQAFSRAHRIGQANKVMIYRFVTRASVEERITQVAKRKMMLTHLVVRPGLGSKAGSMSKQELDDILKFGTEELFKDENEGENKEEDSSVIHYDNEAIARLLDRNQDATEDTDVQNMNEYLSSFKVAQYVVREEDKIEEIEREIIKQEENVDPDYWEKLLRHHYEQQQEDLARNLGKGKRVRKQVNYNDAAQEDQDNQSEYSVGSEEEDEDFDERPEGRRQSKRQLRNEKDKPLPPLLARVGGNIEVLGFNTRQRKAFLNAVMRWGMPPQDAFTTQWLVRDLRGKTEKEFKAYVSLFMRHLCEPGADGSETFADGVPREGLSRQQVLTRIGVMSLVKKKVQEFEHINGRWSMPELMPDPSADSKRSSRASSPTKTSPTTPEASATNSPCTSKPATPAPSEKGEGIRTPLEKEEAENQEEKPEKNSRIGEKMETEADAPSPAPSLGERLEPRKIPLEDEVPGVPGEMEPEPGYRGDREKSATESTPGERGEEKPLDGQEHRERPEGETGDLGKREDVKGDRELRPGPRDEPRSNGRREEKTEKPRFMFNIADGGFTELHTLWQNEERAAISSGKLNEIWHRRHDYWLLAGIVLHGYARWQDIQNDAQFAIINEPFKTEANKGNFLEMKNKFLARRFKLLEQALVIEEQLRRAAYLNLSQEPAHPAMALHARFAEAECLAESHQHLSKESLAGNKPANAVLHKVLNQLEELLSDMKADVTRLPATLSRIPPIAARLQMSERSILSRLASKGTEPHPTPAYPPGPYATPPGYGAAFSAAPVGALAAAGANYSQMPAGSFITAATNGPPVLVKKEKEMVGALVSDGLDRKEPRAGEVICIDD
# Some of the results follow. Most entries show no effect beyond the scatter of the controls.
# Compound: CN[C@@H]1C[C@H]2O[C@@](C)([C@@H]1OC)n1c3ccccc3c3c4c(c5c6ccccc6n2c5c31)C(=O)NC4 [staurosporine]
# Assay: log2 fold change of tryptic peptide abundance, ligand vs vehicle (limited proteolysis) (log2 ratio); higher = more trypsin-susceptible (destabilized)
# Conditions: ligand concentration: 20 uM; sample: K562 cleared lysate; digestion: 4 min, 22 C (HT-PELSA RT4min, Orbitrap Astral)
row,Target,log2 fold change
1,"ABHD18 (peptide sequence: HFTSSADKLTNLNLVSR, peptide start residue: 246) (UniProt Q0P651)",0.372
2,"FOXK1 (peptide sequence: QSPGPALAR, peptide start residue: 100) (UniProt P85037)",0.325
3,"SLC20A2 (peptide sequence: SPISNGTFGFDGHTR, peptide start residue: 324) (UniProt Q08357)",0.885
4,"UniProt Q08170 (peptide sequence: RDGSYGSGR, peptide start residue: 75)",-0.43
5,"MVK (peptide sequence: VDLSLPNIGIK, peptide start residue: 49) (UniProt Q03426)",0.144
6,"DHX9 (peptide sequence: KMTPSYEIR, peptide start residue: 16) (UniProt Q08211)",0.228
7,"GABPB1 (peptide sequence: AGQDDEVR, peptide start residue: 16) (UniProt Q06547)",0.193
8,"GABPA (peptide sequence: TLIGYSAAELNR, peptide start residue: 405) (UniProt Q06546)",-0.196
9,"NFIA (peptide sequence: GIPLESTDGER, peptide start residue: 140) (UniProt Q12857)",-0.113
10,"DGCR2 (peptide sequence: IESLIGANLHHFNLGR, peptide start residue: 379) (UniProt P98153)",-0.308
11,"UniProt Q08050 (peptide sequence: HNLSLHDMFVR, peptide start residue: 287)",0.448
12,"CDK6 (peptide sequence: DMMFQLLR, peptide start residue: 124) (UniProt Q00534)",-0.296
13,"SOS2 (peptide sequence: NNWMAALISLHYR, peptide start residue: 533) (UniProt Q07890)",0.294
14,"TLE2 (peptide sequence: VPICIPAR, peptide start residue: 258) (UniProt Q04725)",-0.237
15,"MCL1 (peptide sequence: LLFFAPTR, peptide start residue: 96) (UniProt Q07820)",0.0909
16,"SET (peptide sequence: SGKDLTKR, peptide start residue: 175) (UniProt Q01105)",0.213
17,"UniProt Q13118 (peptide sequence: SHICSHPGCGK, peptide start residue: 368)",-0.509
18,"UniProt Q02386 (peptide sequence: SYTNDASYR, peptide start residue: 219)",-0.536
19,"OTUD4 (peptide sequence: NVEYEIWLK, peptide start residue: 258) (UniProt Q01804)",-0.16
20,"NUP160 (peptide sequence: QLVVVLCER, peptide start residue: 1036) (UniProt Q12769)",-0.211
21,"BCL2L1 (peptide sequence: EAGDEFELR, peptide start residue: 92) (UniProt Q07817)",-0.11
22,"AHNAK (peptide sequence: VSMPDVDLNLKGPK, peptide start residue: 1781) (UniProt Q09666)",0.133
23,"TRIM32 (peptide sequence: ELTLQDVELLK, peptide start residue: 272) (UniProt Q13049)",-0.466
24,"PLOD1 (peptide sequence: SEDYVDIVQGR, peptide start residue: 431) (UniProt Q02809)",-0.111
25,"TFAM (peptide sequence: NLSDSEKELYIQHAKEDETR, peptide start residue: 191) (UniProt Q00059)",-0.303
26,"UniProt Q12824 (peptide sequence: TYAFSENPLPTVEIAIR, peptide start residue: 325)",-0.243
27,"MRPL28 (peptide sequence: YPVWLWK, peptide start residue: 6) (UniProt Q13084)",-0.269
28,"EML5 (peptide sequence: QVYKEDLPQLK, peptide start residue: 644) (UniProt Q05BV3)",0.0513
29,"CHD3 (peptide sequence: EFQMWAPK, peptide start residue: 803) (UniProt Q12873)",0.422

# Part of the list above, set out differently:
row	Target	log2 fold change
12	CDK6 (peptide sequence: DMMFQLLR, peptide start residue: 124) (UniProt Q00534)	-0.296
13	SOS2 (peptide sequence: NNWMAALISLHYR, peptide start residue: 533) (UniProt Q07890)	0.294
